The other results are listed elsewhere or left out.
How the values were obtained:
Assay in all cases: log2 fold change, soluble protein after heating vs DMSO (PISA); higher = thermal stabilisation; K562 lysate, 10 uM; active = over 0.2 and 3.5 SD of the protein, either way, in both replicates (recomputed)
[1] = compound: NCC(=O)Nc1ccc(-n2nc(C(F)(F)F)cc2-c2ccc3c(ccc4ccccc43)c2)cc1
In short: (§1)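 Thermal stability, expressed as log-two fold change relative to solvent controls, is given from duplicates. Crude K562 extract in PBS pH 7.4 with 1 mM MgCl2, at 1 mg/mL protein, was treated with 10 μM compound for 30 min and heated in aliquots for 3 min across 48°C-58°C. After pooling, adjustment to 0.5% NP-40 at 4°C and centrifugation at 21,000xg for 90 min, supernatant protein was measured by TMTpro 16plex LC-MS/MS with channel sums equalised.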

Amino acid sequences for entries named in this document (tags omitted). A change or cut given only in a name is not applied to a line headed by its entry.
UniProt Q9HCC0: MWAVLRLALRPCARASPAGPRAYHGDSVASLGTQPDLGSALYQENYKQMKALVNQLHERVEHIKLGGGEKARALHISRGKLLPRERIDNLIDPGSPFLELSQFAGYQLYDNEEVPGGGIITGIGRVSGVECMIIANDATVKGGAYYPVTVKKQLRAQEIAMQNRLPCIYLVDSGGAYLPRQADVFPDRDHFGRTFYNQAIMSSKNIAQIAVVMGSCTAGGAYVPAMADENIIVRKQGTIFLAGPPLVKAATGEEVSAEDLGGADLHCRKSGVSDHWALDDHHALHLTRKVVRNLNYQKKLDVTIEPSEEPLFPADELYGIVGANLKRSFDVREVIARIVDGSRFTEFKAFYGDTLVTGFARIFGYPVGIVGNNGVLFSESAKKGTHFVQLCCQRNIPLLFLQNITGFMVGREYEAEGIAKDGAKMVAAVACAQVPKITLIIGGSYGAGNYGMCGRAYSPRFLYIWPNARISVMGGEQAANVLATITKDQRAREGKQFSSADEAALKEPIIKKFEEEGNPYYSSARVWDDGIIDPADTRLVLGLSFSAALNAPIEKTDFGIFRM
UniProt O00255, whole entry, looked up: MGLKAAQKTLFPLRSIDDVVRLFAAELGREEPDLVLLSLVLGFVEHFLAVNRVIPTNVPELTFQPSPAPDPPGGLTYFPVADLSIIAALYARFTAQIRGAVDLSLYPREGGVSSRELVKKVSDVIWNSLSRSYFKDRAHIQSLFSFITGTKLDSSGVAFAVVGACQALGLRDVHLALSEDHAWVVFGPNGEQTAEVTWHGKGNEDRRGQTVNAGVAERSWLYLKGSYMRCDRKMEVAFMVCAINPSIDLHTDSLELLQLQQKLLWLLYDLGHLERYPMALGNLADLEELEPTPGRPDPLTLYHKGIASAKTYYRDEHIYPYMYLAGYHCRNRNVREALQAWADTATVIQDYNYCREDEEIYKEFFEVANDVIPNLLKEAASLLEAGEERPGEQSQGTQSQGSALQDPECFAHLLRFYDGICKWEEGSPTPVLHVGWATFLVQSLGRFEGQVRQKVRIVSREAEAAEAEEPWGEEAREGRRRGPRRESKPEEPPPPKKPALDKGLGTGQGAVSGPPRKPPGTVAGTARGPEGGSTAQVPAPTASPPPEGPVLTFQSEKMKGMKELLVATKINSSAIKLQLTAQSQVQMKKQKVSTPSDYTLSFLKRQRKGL
UniProt P25205: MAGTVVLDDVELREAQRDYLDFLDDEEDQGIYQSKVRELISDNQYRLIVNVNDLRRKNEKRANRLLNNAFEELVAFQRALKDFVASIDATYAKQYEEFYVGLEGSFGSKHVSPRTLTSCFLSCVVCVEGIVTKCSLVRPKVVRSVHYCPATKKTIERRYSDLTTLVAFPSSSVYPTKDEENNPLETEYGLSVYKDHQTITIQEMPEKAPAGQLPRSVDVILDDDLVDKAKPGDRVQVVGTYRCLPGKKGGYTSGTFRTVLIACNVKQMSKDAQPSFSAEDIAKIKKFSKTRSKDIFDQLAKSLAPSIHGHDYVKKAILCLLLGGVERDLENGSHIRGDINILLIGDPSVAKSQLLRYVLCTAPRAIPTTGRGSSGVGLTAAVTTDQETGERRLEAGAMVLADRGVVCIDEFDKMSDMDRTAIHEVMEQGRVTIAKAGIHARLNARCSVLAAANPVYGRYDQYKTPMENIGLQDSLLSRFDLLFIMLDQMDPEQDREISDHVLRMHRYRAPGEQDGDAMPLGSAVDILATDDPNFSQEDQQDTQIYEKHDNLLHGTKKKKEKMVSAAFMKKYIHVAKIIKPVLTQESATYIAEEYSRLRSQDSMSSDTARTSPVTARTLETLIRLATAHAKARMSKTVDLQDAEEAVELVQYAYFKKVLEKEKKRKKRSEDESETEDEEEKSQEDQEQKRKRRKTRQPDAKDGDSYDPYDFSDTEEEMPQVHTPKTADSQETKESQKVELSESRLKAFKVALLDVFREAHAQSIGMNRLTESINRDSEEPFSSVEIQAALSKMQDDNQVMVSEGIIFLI
UniProt O75448: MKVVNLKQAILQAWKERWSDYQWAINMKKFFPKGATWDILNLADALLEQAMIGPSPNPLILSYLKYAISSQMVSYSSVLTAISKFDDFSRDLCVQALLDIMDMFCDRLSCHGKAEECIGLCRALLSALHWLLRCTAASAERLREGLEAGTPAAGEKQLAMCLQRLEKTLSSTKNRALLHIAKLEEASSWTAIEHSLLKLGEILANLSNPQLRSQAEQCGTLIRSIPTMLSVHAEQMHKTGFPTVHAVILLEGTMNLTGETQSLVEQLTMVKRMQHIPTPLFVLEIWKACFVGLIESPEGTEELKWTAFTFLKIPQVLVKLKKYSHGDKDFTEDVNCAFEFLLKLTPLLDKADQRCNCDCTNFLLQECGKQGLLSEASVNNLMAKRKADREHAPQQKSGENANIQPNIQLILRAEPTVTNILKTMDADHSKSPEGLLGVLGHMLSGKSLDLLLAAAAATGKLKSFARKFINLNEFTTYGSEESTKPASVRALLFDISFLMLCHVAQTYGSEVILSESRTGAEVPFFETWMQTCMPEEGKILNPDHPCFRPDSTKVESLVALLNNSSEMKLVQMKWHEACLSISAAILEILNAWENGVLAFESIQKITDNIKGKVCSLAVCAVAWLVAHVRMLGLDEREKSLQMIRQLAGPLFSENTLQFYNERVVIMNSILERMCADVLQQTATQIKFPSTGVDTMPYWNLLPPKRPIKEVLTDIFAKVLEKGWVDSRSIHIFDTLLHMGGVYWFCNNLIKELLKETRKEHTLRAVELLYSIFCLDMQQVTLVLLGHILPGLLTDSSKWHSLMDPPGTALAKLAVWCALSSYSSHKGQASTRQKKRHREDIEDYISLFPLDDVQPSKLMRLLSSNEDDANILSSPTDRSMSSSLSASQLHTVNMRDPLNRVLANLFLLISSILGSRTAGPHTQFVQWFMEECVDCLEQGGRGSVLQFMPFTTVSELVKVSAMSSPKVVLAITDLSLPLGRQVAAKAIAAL
UniProt Q8TC05: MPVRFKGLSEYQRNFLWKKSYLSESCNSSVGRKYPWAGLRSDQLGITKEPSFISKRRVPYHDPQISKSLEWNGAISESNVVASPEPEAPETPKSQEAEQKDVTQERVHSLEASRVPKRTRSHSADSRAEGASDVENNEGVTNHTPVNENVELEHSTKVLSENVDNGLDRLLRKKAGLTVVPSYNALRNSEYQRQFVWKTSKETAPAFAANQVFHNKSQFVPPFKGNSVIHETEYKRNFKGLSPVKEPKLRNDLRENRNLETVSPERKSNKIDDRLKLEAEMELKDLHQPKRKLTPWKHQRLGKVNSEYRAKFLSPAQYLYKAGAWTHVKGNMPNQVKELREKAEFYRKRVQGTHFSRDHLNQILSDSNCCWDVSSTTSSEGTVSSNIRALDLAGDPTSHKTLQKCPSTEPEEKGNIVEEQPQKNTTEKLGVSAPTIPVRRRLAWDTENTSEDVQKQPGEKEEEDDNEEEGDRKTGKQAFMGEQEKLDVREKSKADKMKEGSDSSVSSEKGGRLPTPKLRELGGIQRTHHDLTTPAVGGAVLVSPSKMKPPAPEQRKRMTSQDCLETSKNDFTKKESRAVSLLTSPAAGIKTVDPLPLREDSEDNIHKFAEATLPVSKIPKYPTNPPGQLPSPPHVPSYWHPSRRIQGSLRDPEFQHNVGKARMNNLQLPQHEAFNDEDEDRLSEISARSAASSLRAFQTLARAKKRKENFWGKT
UniProt O95402: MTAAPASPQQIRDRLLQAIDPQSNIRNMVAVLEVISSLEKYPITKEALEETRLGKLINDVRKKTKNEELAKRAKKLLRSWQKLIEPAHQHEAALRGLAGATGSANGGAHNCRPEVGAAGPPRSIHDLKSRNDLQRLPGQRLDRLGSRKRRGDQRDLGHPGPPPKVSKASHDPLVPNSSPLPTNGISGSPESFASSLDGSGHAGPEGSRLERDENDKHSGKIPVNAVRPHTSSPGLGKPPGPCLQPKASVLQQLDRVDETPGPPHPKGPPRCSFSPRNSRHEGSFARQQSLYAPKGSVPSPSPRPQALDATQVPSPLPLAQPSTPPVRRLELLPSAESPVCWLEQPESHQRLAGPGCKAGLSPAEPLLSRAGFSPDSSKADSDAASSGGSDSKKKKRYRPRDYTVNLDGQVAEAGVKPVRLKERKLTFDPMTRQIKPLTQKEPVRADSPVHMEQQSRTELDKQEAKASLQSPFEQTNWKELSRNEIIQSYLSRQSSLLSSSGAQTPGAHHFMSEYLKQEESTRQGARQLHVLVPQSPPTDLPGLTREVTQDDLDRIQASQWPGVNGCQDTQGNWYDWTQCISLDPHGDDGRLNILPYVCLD
UniProt Q16626: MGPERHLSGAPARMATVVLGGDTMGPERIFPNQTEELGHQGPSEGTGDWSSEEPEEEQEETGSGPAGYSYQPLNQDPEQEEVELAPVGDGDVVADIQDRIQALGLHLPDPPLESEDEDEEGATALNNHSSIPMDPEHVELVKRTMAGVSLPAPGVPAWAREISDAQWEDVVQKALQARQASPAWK
UniProt O43513: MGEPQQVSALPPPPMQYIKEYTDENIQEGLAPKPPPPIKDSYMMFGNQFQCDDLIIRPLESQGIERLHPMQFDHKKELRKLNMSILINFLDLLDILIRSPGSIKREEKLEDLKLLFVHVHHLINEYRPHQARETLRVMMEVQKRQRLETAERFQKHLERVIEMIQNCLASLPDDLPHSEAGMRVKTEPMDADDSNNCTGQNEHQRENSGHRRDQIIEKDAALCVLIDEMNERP
UniProt Q9NS73: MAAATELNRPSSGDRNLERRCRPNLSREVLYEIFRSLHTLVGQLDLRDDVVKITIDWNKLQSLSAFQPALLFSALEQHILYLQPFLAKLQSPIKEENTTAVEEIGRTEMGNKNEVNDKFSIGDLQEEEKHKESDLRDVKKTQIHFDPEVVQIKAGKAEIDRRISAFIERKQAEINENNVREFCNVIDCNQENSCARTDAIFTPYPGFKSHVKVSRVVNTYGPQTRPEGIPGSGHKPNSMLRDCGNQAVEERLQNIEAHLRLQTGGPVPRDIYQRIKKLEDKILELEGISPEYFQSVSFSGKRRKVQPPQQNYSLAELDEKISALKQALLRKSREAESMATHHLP
UniProt Q9Y6X3: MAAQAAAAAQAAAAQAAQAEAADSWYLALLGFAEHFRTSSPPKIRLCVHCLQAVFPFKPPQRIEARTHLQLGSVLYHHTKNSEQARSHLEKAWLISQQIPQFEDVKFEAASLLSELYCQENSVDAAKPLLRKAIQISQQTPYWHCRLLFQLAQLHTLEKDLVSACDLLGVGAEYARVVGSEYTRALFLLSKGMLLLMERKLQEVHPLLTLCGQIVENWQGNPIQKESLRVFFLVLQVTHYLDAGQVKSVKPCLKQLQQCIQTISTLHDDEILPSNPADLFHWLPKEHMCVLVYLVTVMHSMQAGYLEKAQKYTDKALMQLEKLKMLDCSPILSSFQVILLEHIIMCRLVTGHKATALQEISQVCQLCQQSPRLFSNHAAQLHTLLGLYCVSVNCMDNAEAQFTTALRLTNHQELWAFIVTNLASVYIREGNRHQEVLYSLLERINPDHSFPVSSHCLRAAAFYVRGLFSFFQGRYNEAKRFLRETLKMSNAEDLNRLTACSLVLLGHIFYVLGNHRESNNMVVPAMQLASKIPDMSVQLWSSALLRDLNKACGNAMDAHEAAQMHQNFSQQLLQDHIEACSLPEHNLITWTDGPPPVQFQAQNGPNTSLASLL
UniProt Q96N66: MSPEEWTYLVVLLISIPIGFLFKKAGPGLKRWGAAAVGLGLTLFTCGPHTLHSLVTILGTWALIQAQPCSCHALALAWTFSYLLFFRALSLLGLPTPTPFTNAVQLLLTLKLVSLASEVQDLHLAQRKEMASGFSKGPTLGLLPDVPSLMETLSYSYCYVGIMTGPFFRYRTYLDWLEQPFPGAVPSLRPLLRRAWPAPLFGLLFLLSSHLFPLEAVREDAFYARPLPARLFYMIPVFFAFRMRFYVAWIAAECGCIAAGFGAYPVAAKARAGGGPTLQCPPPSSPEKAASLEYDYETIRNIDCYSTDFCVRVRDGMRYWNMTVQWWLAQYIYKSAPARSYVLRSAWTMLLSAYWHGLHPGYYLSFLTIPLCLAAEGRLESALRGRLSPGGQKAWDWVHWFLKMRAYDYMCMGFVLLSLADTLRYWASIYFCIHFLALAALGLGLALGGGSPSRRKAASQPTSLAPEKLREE
UniProt Q96IZ6: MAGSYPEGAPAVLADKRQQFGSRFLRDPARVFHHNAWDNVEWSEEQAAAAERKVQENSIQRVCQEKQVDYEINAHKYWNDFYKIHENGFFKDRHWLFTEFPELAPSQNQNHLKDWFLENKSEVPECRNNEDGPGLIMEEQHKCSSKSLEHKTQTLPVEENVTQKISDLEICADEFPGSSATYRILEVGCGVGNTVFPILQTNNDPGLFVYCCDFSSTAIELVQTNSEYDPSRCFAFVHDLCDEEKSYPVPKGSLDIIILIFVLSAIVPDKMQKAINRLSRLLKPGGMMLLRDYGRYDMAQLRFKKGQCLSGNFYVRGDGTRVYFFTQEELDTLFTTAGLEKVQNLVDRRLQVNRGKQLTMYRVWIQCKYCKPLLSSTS

[2] = compound: O=C(CCCCCCC(=O)Nc1ccccc1)NO [vorinostat]
In short: as §1

[3] = compound: O=C(O)c1ccc2c(c1)nc(Nc1cccc(Cl)c1)c1ccncc12 [silmitasertib]
In short: as §1

[4] = compound: O=C1NC(=O)C(c2cnc3ccccn23)=C1c1cn2c3c(cc(F)cc13)CN(C(=O)N1CCCCC1)CC2
In short: as §1

[5] = compound: c1cn2cc(-c3ccc4cn[nH]c4c3)nc(Nc3ccc(N4CCOCC4)cc3)c2n1 [entospletinib]
In short: as §1

Measured: log2 fold change

MCU (UniProt Q8NE86)
inactive: [1] -0.037 | [2] 0.04 | [3] 0 | [4] -0.072 | [5] -0.016

MEPCE (UniProt Q7L2J0)
inactive: [1] -0.041 | [2] -0.093 | [3] 0.005 | [4] -0.073 | [5] 0.028

MED1 (UniProt Q15648)
inactive: [1] 0.009 | [2] -0.092 | [3] -0.022 | [4] 0.008 | [5] -0.029

MCCC2 (UniProt Q9HCC0)
inactive: [1] 0.02 | [2] 0.041 | [3] 0.013 | [4] 0.014 | [5] -0.023

MEF2A (UniProt Q02078)
inactive: [1] 0.014 | [2] 0.134 | [3] 0.015 | [4] -0.008 | [5] 0

MBLAC2 (UniProt Q68D91)
inactive: [1] -0.1 | [2] 0.084 | [3] -0.015 | [4] -0.074 | [5] -0.011

METTL1 (UniProt Q9UBP6)
inactive: [1] 0.024 | [2] 0.003 | [3] 0.008 | [4] -0.028 | [5] -0.065

METAP1 (UniProt P53582)
inactive: [1] 0.014 | [2] 0.187 | [3] -0.024 | [4] -0.013 | [5] -0.004

MED4 (UniProt Q9NPJ6)
inactive: [1] -0.005 | [2] 0.054 | [3] 0 | [4] -0.012 | [5] 0.016

MBOAT1 (UniProt Q6ZNC8)
inactive: [1] 0.126 | [2] 0.251 | [3] -0.177 | [4] 0.041 | [5] -0.081

MED22 isoform 2 (UniProt Q15528)
inactive: [1] -0.017 | [2] -0.049 | [3] -0.006 | [4] 0.009 | [5] -0.09

MDC1 (UniProt Q14676)
inactive: [1] 0.042 | [2] 0.062 | [3] -0.021 | [4] -0.028 | [5] -0.007

MAX (UniProt P61244)
inactive: [1] 0.032 | [2] 0.066 | [3] 0.048 | [4] 0.01 | [5] -0.013

MBD2 (UniProt Q9UBB5)
inactive: [1] 0.018 | [3] 0.017 | [4] -0.022 | [5] 0.022
active: [2] -0.244

MEN1 (UniProt O00255)
inactive: [1] -0.052 | [2] -0.234 | [3] 0.046 | [4] 0.217 | [5] 0.07

MBOAT2 (UniProt Q6ZWT7)
inactive: [1] -0.017 | [2] 0.13 | [3] 0.024 | [4] 0.005 | [5] -0.092

MEX3D isoform 3 (UniProt Q86XN8)
inactive: [1] 0.014 | [2] -0.354 | [3] -0.134 | [4] -0.015 | [5] 0

MCM3 isoform 2 (UniProt P25205)
inactive: [1] -0.017 | [2] -0.161 | [3] 0.033 | [4] 0.008 | [5] 0.017

Two entries picked at random from those above:
MED4 (UniProt Q9NPJ6)
inactive: [1] -0.005 | [2] 0.054 | [3] 0 | [4] -0.012 | [5] 0.016

MBLAC2 (UniProt Q68D91)
inactive: [1] -0.1 | [2] 0.084 | [3] -0.015 | [4] -0.074 | [5] -0.011

Continuation.

MED24 (UniProt O75448)
inactive: [1] -0.009 | [2] -0.17 | [3] -0.019 | [4] 0.017 | [5] -0.059

MDM1 (UniProt Q8TC05)
inactive: [1] 0.056 | [2] 0.085 | [3] 0.093 | [5] -0.119

MELK (UniProt Q14680)
inactive: [1] 0.049 | [2] -0.349 | [3] 0.366 | [4] -0.012 | [5] 0.119

METTL26 (UniProt Q96S19)
inactive: [1] 0.097 | [2] -0.01 | [3] 0.03 | [4] 0.074 | [5] 0.019

MED14 (UniProt O60244)
inactive: [1] -0.01 | [3] -0.035 | [4] 0.002 | [5] -0.084
active: [2] -0.21

MED26 (UniProt O95402)
inactive: [1] -0.136 | [2] 0.214 | [3] -0.101 | [4] 0.064 | [5] -0.102

MEA1 (UniProt Q16626)
inactive: [1] 0.02 | [2] 0.178 | [3] -0.025 | [4] 0.023 | [5] -0.183

MED7 (UniProt O43513)
inactive: [1] 0.096 | [2] -0.063 | [3] 0.003 | [4] -0.007 | [5] -0.12

MBLAC1 (UniProt A4D2B0)
inactive: [1] -0.183 | [2] -0.187 | [3] 0.102 | [5] -0.065

MBIP (UniProt Q9NS73)
inactive: [1] 0.113 | [2] -0.142 | [3] -0.002 | [4] -0.25 | [5] 0.088

MAU2 (UniProt Q9Y6X3)
inactive: [1] -0.007 | [2] -0.06 | [3] 0.026 | [4] 0.035 | [5] 0.03

MBOAT7 (UniProt Q96N66)
inactive: [1] -0.003 | [2] 0.158 | [3] -0.027 | [4] 0.014 | [5] 0.031

MED12 isoform 2 (UniProt Q93074)
inactive: [1] 0.003 | [3] -0.044 | [4] -0.008 | [5] -0.012
active: [2] -0.466

MFF isoform 2 (UniProt Q9GZY8)
inactive: [1] 0.003 | [2] 0.17 | [3] -0.048 | [4] 0.029 | [5] -0.055

MERTK (UniProt Q12866)
inactive: [1] -0.093 | [2] 0.01 | [3] 0.016 | [4] -0.027 | [5] -0.038

METTL2A (UniProt Q96IZ6)
active: [2] -0.28
inactive: [1] 0.033 | [3] -0.005 | [4] 0.058 | [5] -0.003

MED18 (UniProt Q9BUE0)
inactive: [1] -0.073 | [2] 0.073 | [3] -0.044 | [4] -0.05 | [5] -0.008
